According to patent US7795385B2, “Use of bombesin/gastrin-releasing peptide antagonists for the treatment of inflammatory conditions, acute lung injury and bipolar disorder” (Bexar Global, Inc., priority 2004, dated 2010):
Not every detail of the peptide structures is certain; ends, links or a residue may be inferred.

Columns and labels:
peritoneal macrophages = assay: Macrophage release of TNF-α, IL-1β and IL-10; assay type: cell-based, Wistar rats; settings: for IL-1β released by peritoneal macrophages / TNF-α released by peritoneal macrophages: RC-3095 10 μg/ml
[1] = tested on: rats subjected to cecal ligation puncture (CLP); assay: Cecal ligation puncture (CLP) sepsis model: serum markers of organ damage and inflammatory response; assay type: in vivo, Male Wistar rats; settings: for ALT / AST / Amylase / Creatinine / IL-1β / TNF-α / Urea: serum; for ALT / AST / Amylase / Creatinine / IL-1β / TNF-α: basic support plus RC-3095; for Urea: basic support plus RC-3095 5 mg/kg s.c. starting 6 h after CLP
[2] = tested on: rats subjected to cecal ligation puncture (CLP); assay: CLP sepsis model: oxidative damage in organs (TBARS, protein carbonyls); assay type: in vivo, Male Wistar rats; settings: 24 hours after CLP, heart, ileum, liver, lung, kidney, more pronounced in kidney, FIGS. 2 and 3
[3] = tested on: rats subjected to cecal ligation puncture (CLP); assay: CLP sepsis model: histopathological analyses; assay type: in vivo, Male Wistar rats; settings: 24 h after CLP, basic support plus RC-3095 versus basic support; FIG. 4
[4] = tested on: rats subjected to cecal ligation puncture (CLP); assay: CLP sepsis model: intestinal bacteria translocation to mesenteric lymph nodes; assay type: in vivo, Male Wistar rats; settings: data not shown
[5] = tested on: rats with LPS induced acute lung injury; assay: Acute lung injury (ALI) model induced by intratracheal LPS; assay type: in vivo, Adult male Wistar rats
[6] = tested on: amphetamine (AMPH)-induced hyperactivity in rats; assay: Amphetamine-induced hyperactivity test (open field, model of mania); assay type: in vivo, male Wistar rats; settings: RC-3095 0.1, 1.0 or 10.0 mg/kg i.p. 30 min before AMPH i.p.; all doses; FIG. 6
Protocol: Animals. A total of 120 male Wistar rats (age, 2.5-3 months; weight, 220-340 g) from an inhouse breeding colony were used. They were housed in plastic cages, 5 to a cage, with water and food freely available, under a 12-h light/dark cycle (lights on at 7:00 h). All experimental procedures were performed in accordance with the NIH Guide for the Care and Use of Laboratory Animals and the Brazilian Society for Neuroscience and Behavior (SBNeC) recommendations for animal care.
Drugs and pharmacological procedures. d-amphetamine (AMPH, 2.0 mg/kg) and RC-3095 (a gift from Dr. J. Engel, Zentaris GmbH, Germany) were dissolved in saline (SAL, 0.9% NaCl). All solutions were prepared immediately prior to administration. Animals were given a 10 ml/kg intraperitoneal (i.p.) injection of SAL or RC-3095 (0.1, 1.0 or 10.0 mg/kg) followed by an i.p. injection of SAL or AMPH […] 30 min later. Thus, the resulting experimental groups were: SAL/SAL; SAL/AMPH, RC-3095 0.1 mg/kg/AMPH, RC-3095 1.0 mg/kg/AMPH, RC-3095 10.0 mg/kg/AMPH, RC 3095 0.1 mg/kg/SAL; RC-3095 1.0 mg/kg/SAL; and RC-3095 10.0 mg/kg/SAL.
Hyperactivity test. […] Crossings of the black lines and rearings performed were counted. […]
Statistical analysis. All data are presented as mean±S.E.M. Differences among experimental groups were determined by ANOVA. […]

[7] = tested on: patient with rheumatoid arthritis; assay: Administration to a patient with rheumatoid arthritis; assay type: in vivo, human
Protocol: The composition consists of a white lyophilised cake in a 4 ml injection vial. One injection vial will be reconstituted with 2 ml water for injection.
A patient with rheumatoid arthritis, started on March 22 with 6 mg of RC-3095, twice daily. Application subcutaneously.
At baseline visit the patient presented with joint pain grade 3, joint inflammation grade 2 and depression grade 2.
Before start with RC-3095 they were already taken methotrexate, subcutaneously, once a week, and corticosteroids.
They were followed every two weeks by physical examination and laboratorial exams.

[8] = Direct antioxidant or antibiotic effects; settings: suggested by the experimental data

Compound: CC(C)C[C@@H](CN[C@@H](CC(C)C)C(N)=O)NC(=O)[C@H](Cc1c[nH]cn1)NC(=O)CNC(=O)[C@@H](NC(=O)[C@H](C)NC(=O)[C@H](Cc1c[nH]c2ccccc12)NC(=O)[C@H](CCC(N)=O)NC(=O)[C@H]1Cc2c([nH]c3ccccc23)CN1)C(C)C [RC-3095, H-D-Tpi-Gln-Trp-Ala-Val-Gly-His-Leu-psi-Leu-NH2]
- TNF-α and IL-1β released from CLP-activated macrophages (peritoneal macrophages; 1 μg/ml, data not shown): attenuated
- attenuation of LPS-induced TNF-α and IL-1β accumulation in the culture media of macrophages (peritoneal macrophages; 1 μg/ml, data not shown): evident
- maximum inhibition of release of TNF-α and IL-1β by CLP-activated macrophages (peritoneal macrophages; 10 μg/mi concentration): 50%
- release of the anti-inflammatory cytokine IL-10 (peritoneal macrophages; LPS-stimulated macrophages, both doses studied (1 and 10 μg/ml), data not shown): did not interfere
- IL-1β released by peritoneal macrophages (peritoneal macrophages; M-CLP + RC: macrophages from CLP rats, M-CLP alone 287 ± 32): 134 ± 11
- TNF-α released by peritoneal macrophages (peritoneal macrophages; M-CLP + RC: macrophages from CLP rats, M-CLP alone 1983 ± 213): 890 ± 123
- IL-1β released by peritoneal macrophages (peritoneal macrophages; M-LPS + RC: macrophages from normal rat exposed to LPS (100 ng/ml), M-LPS alone 250 ± 19): 102 ± 12
- TNF-α released by peritoneal macrophages (peritoneal macrophages; M-LPS + RC: macrophages from normal rat exposed to LPS (100 ng/ml), M-LPS alone 1400 ± 102): 540 ± 86
- circulating IL-10 levels during sepsis ([1]; data not shown): did not modulate
- ALT ([1]; 12 h after CLP): 59 ± 7 Ul/l
- AST ([1]; 12 h after CLP): 276 ± 19 Ul/l
- Amylase ([1]; 12 h after CLP): 2010 ± 102 Ul/l
- Creatinine ([1]; 12 h after CLP): 0.2 ± 0.01 mg/dL
- IL-1β ([1]; 12 h after CLP): 209 ± 24 pg/mL
- TNF-α ([1]; 12 h after CLP): 1130 ± 92 pg/mL
- Urea ([1]; 12 h after CLP): 27 ± 0.9 mg/dL
- ALT ([1]; 24 h after CLP): 52 ± 10 Ul/l
- AST ([1]; 24 h after CLP): 301 ± 21 Ul/l
- Amylase ([1]; 24 h after CLP): 1900 ± 121 Ul/l
- Creatinine ([1]; 24 h after CLP): 0.2 ± 0.02 mg/dL
- IL-1β ([1]; 24 h after CLP): 178 ± 21 pg/mL
- TNF-α ([1]; 24 h after CLP): 1021 ± 102 pg/mL
- Urea ([1]; 24 h after CLP): 27 ± 0.5 mg/dL
- oxidative damage in organs associated with the septic response (TBARS and protein carbonyls levels) [2]: attenuated oxidative damage
- histopathological alterations: ileal inflammatory infiltration, alveolar edema and inflammatory infiltration, renal tubular necrosis [3]: diminished
- reduction of bacteria counting in mesenteric lymph nodes [4]: 3 fold
- LDH activity ([5]; BALF, 12 hours after intra-tracheal LPS, RC-3095 5 mg/kg s.c. 3 h after ALI, LPS alone 16.2 ± 2.3): 8.3 ± 1.2 Ul/l
- Total protein ([5]; BALF, 12 hours after intra-tracheal LPS, RC-3095 5 mg/kg s.c. 3 h after ALI, LPS alone 78 ± 6.5): 37 ± 2.1 mg/mL
- Total cell count ([5]; BALF, 12 hours after intra-tracheal LPS, RC-3095 5 mg/kg s.c. 3 h after ALI, LPS alone 500 ± 21): 97 ± 4.6 ×10^5
- alveolar inflammatory infiltration and alveolar exudation induced by LPS ([5]; RC-3095 treatment after ALI induction): attenuated
- LPS-induced oxidative damage of lung parenchyma (protein carbonyls, TBARS) ([5]; RC-3095 treatment after ALI induction, FIG. 5): partially protects
- AMPH-related hyperactivity (crossings and rearings in open field) [6]: prevented
- symptoms and quality of life ([7]; 6 mg RC-3095 twice daily s.c., after approximately one week, on methotrexate and corticosteroids): improved
- Disease activity score—DAS ([7]; Visit March 29, one week after start of 6 mg twice daily s.c., visit March 22 (start) DAS=6.69): 7.20
- direct antioxidant or antibiotic effects [8]: did not exhibit
